Experimental data reported in patent US20230285585A1, “TREATMENT OF PULMONARY HYPERTENSION” (PHILOGEN S.P.A., priority 2020, published 2023).
Results are given in words; binding and its absence hold for the method and conditions named. Some results given as binding are weak or reduced against the parent protein; the word gives no strength.

The chains behind the UniProt entries cited, without tags or fusion partners. Residues count along the entry.
UniProt P02751, residues 1635-1908: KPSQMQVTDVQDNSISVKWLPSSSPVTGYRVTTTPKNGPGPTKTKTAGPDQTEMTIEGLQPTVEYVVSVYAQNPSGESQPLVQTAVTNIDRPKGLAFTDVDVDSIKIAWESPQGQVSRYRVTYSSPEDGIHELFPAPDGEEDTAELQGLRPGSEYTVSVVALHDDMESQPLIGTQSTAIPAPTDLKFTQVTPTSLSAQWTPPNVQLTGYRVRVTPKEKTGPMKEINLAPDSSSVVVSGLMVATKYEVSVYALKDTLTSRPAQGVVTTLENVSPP

B1: mIL9-F8(db) (protein)
chain: QRCSTTWGIRDTNYLIENLKDDPPSKCSCSGNVTSCLCLSVPTDDCTTPCYREGLLQLTNATQKSRLLPVFHRVKRIVEVLKNITCPSFSCEKPCNQTMAGNTLSFLKSLLGTFQKTEMQRQKSRPGGGGSGGGGSGGGGSEVQLLESGGGLVQPGGSLRLSCAASGFTFSLFTMSWVRQAPGKGLEWVSAISGSGGSTYYADSVKGRFTISRDNSKNTLYLQMNSLRAEDTAVYYCAKSTHLYLFDYWGQGTLVTVSSGGSGGEIVLTQSPGTLSLSPGERATLSCRASQSVSMPFLAWYQQKPGQAPRLLIYGASSRATGIPDRFSGSGSGTDFTLTISRLEPEDFAVYYCQQMRGRPPTFGQGTKVEIK
B2: F8(scFv)-mIL9-F8(scFv) (protein)
chain: EVQLLESGGGLVQPGGSLRLSCAASGFTFSLFTMSWVRQAPGKGLEWVSAISGSGGSTYYADSVKGRFTISRDNSKNTLYLQMNSLRAEDTAVYYCAKSTHLYLFDYWGQGTLVTVSSGGGGSGGGGSGGGGEIVLTQSPGTLSLSPGERATLSCRASQSVSMPFLAWYQQKPGQAPRLLIYGASSRATGIPDRFSGSGSGTDFTLTISRLEPEDFAVYYCQQMRGRPPTFGQGTKVEIKSGGSGSGGGGQRCSTTWGIRDTNYLIENLKDDPPSKCSCSGNVTSCLCLSVPTDDCTTPCYREGLLQLTNATQKSRLLPVFHRVKRIVEVLKNITCPSFSCEKPCNQTMAGNTLSFLKSLLGTFQKTEMQRQKSRPSGGSGSGGGGEVQLLESGGGLVQPGGSLRLSCAASGFTFSLFTMSWVRQAPGKGLEWVSAISGSGGSTYYADSVKGRFTISRDNSKNTLYLQMNSLRAEDTAVYYCAKSTHLYLFDYWGQGTLVTVSSGGGGSGGGGSGGGGEIVLTQSPGTLSLSPGERATLSCRASQSVSMPFLAWYQQKPGQAPRLLIYGASSRATGIPDRFSGSGSGTDFTLTISRLEPEDFAVYYCQQMRGRPPTFGQGTKVEIK
B3: F8(db)-mIL9 (protein)
chain: EVQLLESGGGLVQPGGSLRLSCAASGFTFSLFTMSWVRQAPGKGLEWVSAISGSGGSTYYADSVKGRFTISRDNSKNTLYLQMNSLRAEDTAVYYCAKSTHLYLFDYWGQGTLVTVSSGGSGGEIVLTQSPGTLSLSPGERATLSCRASQSVSMPFLAWYQQKPGQAPRLLIYGASSRATGIPDRFSGSGSGTDFTLTISRLEPEDFAVYYCQQMRGRPPTFGQGTKVEIKGGGGSGGGGSGGGGSQRCSTTWGIRDTNYLIENLKDDPPSKCSCSGNVTSCLCLSVPTDDCTTPCYREGLLQLTNATQKSRLLPVFHRVKRIVEVLKNITCPSFSCEKPCNQTMAGNTLSFLKSLLGTFQKTEMQRQKSRP

Biological target: recombinant fibronectin 11A12 domain (UniProt P02751)
Assay: SPR (BIAcore X100), CM5 chip coated with recombinant fibronectin 11A12 domain

Binder | binding
B1 | binds
B2 | binds
B3 | binds
